Data as given in US20040049075A1, “Process for the production of calcium pantothenate” (priority 2000, published 2004).
Some results were stated once for a whole list of compounds, not compound by compound.

Assay: Moisture absorption test
Assay type: physicochemical
Conditions: 40° C. and 75% RH
From the text: The term “crystalline” used in the specification encompasses a substance containing a small amount of an amorphous part, as well as a substance substantially consisting completely of crystals. However, calcium pantothenate in a completely amorphous state (the state which gives substantially no detectable peak by the powder X-ray diffraction analysis) is excluded. The term “crystalline” should not be interpreted to exclude a substance containing a small amount of an amorphous part. Further, the term “amorphous” means a state in which no peak is substantially detectable by powder X-ray diffraction analysis. The term “nonhygroscopic” used in the specification means that a moisture absorption amount is 2% or less, preferably 1% or less, after 24 hours at 40° C. under a relative humidity of 75%. A moisture absorption test was performed under conditions of 40° C. and 75% RH for the PC consisting of α-form crystals obtained in Example 1 and the PC consisting of β-form crystals obtained in Example 7. A similar test was performed for the amorphous PC used in Example 1 as a control.

Q: For “monocalcium bis[(R)-N-(2,4-dihydroxy-3,3-dimethylbutyryl)-β-alaninate]”, which weight change (after 7 hours) is on record?
A: The weight change was no more than 1 % by weight.

Q: What about the weight change (after 24 hours) of the same substance?
A: The weight change was no more than 1 % by weight.
